Whole data set: some 33,000 sequences, median “E-score (-0.5 to 0.5)” near -0.015, cut for the highest 2% near 0.3. This is one part of the list.
Target: T1, Abf1 (UniProt P14164)
T1 sequence: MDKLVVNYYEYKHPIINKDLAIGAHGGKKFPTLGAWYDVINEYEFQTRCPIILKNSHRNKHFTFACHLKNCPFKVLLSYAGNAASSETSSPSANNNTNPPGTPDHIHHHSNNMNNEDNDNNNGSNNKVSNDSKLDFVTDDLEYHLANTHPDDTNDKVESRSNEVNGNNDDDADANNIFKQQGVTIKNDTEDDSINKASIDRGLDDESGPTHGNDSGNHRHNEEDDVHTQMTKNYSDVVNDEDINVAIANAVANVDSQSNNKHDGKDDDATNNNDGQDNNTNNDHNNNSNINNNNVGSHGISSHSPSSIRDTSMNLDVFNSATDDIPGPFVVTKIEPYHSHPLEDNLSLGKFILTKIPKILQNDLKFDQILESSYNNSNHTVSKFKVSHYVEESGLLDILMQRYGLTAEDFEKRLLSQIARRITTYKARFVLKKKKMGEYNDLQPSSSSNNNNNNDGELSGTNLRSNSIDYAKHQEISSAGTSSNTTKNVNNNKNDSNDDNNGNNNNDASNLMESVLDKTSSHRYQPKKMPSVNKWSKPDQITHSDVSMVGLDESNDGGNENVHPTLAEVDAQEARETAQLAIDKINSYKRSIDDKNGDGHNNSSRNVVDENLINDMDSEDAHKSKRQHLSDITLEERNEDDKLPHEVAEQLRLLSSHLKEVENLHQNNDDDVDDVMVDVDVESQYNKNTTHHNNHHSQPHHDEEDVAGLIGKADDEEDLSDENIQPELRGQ
Test: PBM E-score (8-mer binding enrichment) (E-score (-0.5 to 0.5)); higher = stronger / more preferred TF binding
Details: protein concentration: 200 nM; construct: GST-full length
Description: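 Universal 'all 10-mer' protein binding microarrays (Agilent AMADID 015681) probed with GST-tagged S. cerevisiae TFs (full-length or DBD) made by in vitro transcription/translation (PURExpress), about 100-200 nM. Bound TF was detected with fluorescent anti-GST. Each ungapped 8-mer (which stands for itself and its reverse complement) is scored by the PBM enrichment score (E-score), a modified Wilcoxon-Mann-Whitney statistic from -0.5 to +0.5, computed with the Universal PBM Analysis Suite. Scale: above 0.35 generally sequence-specific binding.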

| Sequence | PBM E-score |
| --- | --- |
| GCCAAAAC | -0.156 |
| CACACCCG | -0.0662 |
| TAATAAAA | 0.188 |
| CTCAGCCA | -0.0785 |
| AACGCTAT | 0.0722 |
| ACGATCCT | 0.165 |
| CTGATTTC | 0.129 |
| CAGGGCCA | -0.227 |
| CTCATTTA | 0.0543 |
| CCAGGAAC | -0.22 |
| ATGCGGGG | -0.054 |
| CAATATTC | -0.0413 |
| AACGGATT | 0.236 |
| AGGTCCAA | -0.193 |
| CAGGATAA | -0.0165 |
| AGCCAGAA | -0.0335 |
| CCTCGGAG | -0.229 |
| GCAATGGC | -0.291 |
| TCAAGGCA | -0.264 |
| AACTGAAG | -0.0872 |
| AGACAGTC | -0.226 |
| TACTGTGA | -0.0129 |

| Sequence | PBM E-score |
| --- | --- |
| ACTGGGCG | -0.177 |
| ACGGTGCA | 0.159 |
| CTCGGGAC | -0.163 |
| CAAGTGCC | -0.336 |
| GGGACACC | -0.126 |
| ACGTTGTA | 0.14 |
| AGCAATCC | -0.0511 |
| TACAAAGA | 0.234 |
| CCGGACCG | -0.0652 |
| ACCGATAG | -0.0276 |
| CATCAGAG | 0.111 |
| CCGGCGGA | -0.0642 |
| GCTTGAAC | 0.19 |
| AGTGGCTA | -0.0332 |
| ACGAACAC | 0.245 |
| TGGAAACA | 0.015 |
| GAGATTCA | -0.0442 |
| GTAATCGA | 0.184 |
| CCTAAAGA | -0.188 |
| ATGTAAGC | 0.00043 |
| TATTATCA | 0.34 |
| CAATGACG | 0.156 |

| Sequence | PBM E-score |
| --- | --- |
| AGGCCTTA | -0.137 |
| CTACGTAG | 0.12 |
| AAGCGTCT | -0.218 |
| GGATTTTA | -0.071 |
| TCTAATCA | 0.154 |
| CATGCTTA | -0.0464 |
| AAATCCTG | -0.0759 |
| CACCGTAC | 0.385 |
| CGGAACTC | -0.119 |
| ACTATCAA | 0.188 |
| CCAGCCGA | -0.284 |
| ATGAGAAC | 0.111 |
| ATCATGAC | 0.265 |
| AATAGACC | -0.21 |
| ACCGTAAT | 0.0793 |
| GATGTCAC | 0.395 |
| ACAAGCGG | 0.0458 |
| CGGCGTCA | -0.103 |
| CTTTTTAA | 0.0715 |
| CTCTGCAG | -0.177 |
| AAGATCTT | 0.061 |
| CGTTTCCA | 0.101 |

| Sequence | PBM E-score |
| --- | --- |
| CTCGTTTA | 0.0984 |
| CAACTATG | -0.0379 |
| CAGGACTA | -0.0861 |
| CGATTTCA | -0.045 |
| CCCTTGAC | -0.169 |
| AAGCGGAG | -0.337 |
| CCCATCTC | -0.0893 |
| CTCCGTAA | 0.156 |
| CGCGACAG | 0.0117 |
| CGCACAGA | -0.00661 |
| CGTTTCCC | -0.0977 |
| CCTACTCA | -0.21 |
| GGATAACC | 0.0683 |
| CTCGAGAG | -0.0384 |
| AAGTTATC | 0.217 |
| TGAACTAA | 0.0826 |
| AATGTACC | 0.0616 |
| AGCCCCTA | -0.456 |
| GAGGCCCA | -0.169 |
| ACAGTGAA | 0.0759 |

20 neighbouring records out of the list so far, for reference:

| Sequence | PBM E-score |
| --- | --- |
| CTCGTTTA | 0.0984 |
| CAACTATG | -0.0379 |
| CAGGACTA | -0.0861 |
| CGATTTCA | -0.045 |
| CCCTTGAC | -0.169 |
| AAGCGGAG | -0.337 |
| CCCATCTC | -0.0893 |
| CTCCGTAA | 0.156 |
| CGCGACAG | 0.0117 |
| CGCACAGA | -0.00661 |
| CGTTTCCC | -0.0977 |
| CCTACTCA | -0.21 |
| GGATAACC | 0.0683 |
| CTCGAGAG | -0.0384 |
| AAGTTATC | 0.217 |
| TGAACTAA | 0.0826 |
| AATGTACC | 0.0616 |
| AGCCCCTA | -0.456 |
| GAGGCCCA | -0.169 |
| ACAGTGAA | 0.0759 |
